According to the supplement of paper PMC12823440, “Inhibitors supercharge kinase turnover through native proteolytic circuits” (Nature, 2025):
This is one part of the list. The calls rarely recur for the same compound in another form.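 In K562 cells expressing nanoluciferase-fused kinases, luminescence was recorded at 4 h intervals between 2 and 18 h, normalized as percent of control with DMSO at 100% and a positive control at 0%. A significant (2 sigma) signal drop marks a time point as decreased. The authors' rule for a hit is not shown and takes in more than the number of time points.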

Protein sequences, listed by entry. Tags and fused reporters are not part of them. Lines headed by an entry give the natural chain unless they say otherwise; changes in a name come on top.
UniProt O75460: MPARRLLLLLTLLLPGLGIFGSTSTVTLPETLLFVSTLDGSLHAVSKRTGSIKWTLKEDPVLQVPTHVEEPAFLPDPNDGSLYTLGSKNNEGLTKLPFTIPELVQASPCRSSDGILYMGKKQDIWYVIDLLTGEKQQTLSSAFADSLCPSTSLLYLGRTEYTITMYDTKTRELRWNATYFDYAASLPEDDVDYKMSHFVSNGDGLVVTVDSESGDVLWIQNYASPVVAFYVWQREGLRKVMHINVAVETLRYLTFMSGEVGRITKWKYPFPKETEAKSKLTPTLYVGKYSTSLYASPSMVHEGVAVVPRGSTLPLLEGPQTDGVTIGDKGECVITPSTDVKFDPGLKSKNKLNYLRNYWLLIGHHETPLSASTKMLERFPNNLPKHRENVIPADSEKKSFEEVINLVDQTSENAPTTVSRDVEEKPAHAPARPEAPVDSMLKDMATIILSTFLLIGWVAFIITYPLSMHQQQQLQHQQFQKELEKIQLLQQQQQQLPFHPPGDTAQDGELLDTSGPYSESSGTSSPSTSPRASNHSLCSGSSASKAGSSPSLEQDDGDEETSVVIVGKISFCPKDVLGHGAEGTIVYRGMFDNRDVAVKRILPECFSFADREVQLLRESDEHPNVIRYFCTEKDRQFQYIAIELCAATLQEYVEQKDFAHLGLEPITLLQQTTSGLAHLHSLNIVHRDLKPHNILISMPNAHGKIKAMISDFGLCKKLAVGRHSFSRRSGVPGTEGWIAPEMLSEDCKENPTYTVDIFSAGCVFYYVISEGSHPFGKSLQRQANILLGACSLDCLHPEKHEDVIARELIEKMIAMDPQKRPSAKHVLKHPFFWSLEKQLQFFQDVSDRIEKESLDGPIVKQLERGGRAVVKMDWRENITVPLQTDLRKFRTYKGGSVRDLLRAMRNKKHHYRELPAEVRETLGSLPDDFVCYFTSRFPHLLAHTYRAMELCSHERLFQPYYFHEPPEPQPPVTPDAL
UniProt P11362, whole entry, looked up: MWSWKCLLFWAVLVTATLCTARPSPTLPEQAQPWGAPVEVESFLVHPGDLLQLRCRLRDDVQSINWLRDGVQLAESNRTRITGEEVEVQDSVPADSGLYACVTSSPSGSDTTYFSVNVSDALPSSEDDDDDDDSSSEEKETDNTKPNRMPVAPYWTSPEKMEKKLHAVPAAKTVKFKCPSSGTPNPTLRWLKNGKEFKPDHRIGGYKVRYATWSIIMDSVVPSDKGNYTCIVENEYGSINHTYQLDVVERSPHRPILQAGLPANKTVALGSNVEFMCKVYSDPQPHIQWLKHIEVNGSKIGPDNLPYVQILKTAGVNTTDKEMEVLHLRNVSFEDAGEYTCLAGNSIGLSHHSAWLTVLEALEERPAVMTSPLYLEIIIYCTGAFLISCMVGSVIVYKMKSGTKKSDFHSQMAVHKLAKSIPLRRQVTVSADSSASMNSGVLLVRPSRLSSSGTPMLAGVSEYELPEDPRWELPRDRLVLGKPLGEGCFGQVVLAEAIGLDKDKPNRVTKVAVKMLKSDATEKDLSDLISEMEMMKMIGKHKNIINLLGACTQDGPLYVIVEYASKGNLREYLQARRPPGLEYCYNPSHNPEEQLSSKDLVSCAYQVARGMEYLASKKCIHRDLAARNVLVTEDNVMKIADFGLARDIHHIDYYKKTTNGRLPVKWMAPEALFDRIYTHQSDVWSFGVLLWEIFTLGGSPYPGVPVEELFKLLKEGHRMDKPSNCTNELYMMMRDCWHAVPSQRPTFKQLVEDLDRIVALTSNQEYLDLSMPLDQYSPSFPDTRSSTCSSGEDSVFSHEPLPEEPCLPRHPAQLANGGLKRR
UniProt P21802, whole entry, looked up: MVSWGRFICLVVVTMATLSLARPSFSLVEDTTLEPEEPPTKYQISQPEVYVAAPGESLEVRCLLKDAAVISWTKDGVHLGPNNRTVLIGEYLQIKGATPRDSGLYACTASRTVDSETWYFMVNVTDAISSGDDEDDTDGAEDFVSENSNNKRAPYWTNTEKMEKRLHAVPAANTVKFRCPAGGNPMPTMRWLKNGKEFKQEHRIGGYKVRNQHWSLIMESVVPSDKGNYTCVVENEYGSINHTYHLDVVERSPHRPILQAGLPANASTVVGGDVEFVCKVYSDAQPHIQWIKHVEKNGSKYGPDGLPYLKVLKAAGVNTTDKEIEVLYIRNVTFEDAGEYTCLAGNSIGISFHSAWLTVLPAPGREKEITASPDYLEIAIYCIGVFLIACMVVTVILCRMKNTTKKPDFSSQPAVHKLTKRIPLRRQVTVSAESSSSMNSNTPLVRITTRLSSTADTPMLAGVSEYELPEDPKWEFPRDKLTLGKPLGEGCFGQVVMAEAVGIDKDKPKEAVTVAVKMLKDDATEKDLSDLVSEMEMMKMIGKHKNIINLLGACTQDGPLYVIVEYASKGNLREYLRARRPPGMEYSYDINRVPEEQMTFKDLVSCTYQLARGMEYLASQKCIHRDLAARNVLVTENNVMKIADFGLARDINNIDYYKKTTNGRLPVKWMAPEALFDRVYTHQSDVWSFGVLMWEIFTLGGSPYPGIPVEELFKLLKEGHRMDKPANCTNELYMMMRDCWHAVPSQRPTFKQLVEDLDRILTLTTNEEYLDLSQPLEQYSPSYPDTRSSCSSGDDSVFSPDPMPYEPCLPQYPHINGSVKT
UniProt P22607, whole entry, looked up: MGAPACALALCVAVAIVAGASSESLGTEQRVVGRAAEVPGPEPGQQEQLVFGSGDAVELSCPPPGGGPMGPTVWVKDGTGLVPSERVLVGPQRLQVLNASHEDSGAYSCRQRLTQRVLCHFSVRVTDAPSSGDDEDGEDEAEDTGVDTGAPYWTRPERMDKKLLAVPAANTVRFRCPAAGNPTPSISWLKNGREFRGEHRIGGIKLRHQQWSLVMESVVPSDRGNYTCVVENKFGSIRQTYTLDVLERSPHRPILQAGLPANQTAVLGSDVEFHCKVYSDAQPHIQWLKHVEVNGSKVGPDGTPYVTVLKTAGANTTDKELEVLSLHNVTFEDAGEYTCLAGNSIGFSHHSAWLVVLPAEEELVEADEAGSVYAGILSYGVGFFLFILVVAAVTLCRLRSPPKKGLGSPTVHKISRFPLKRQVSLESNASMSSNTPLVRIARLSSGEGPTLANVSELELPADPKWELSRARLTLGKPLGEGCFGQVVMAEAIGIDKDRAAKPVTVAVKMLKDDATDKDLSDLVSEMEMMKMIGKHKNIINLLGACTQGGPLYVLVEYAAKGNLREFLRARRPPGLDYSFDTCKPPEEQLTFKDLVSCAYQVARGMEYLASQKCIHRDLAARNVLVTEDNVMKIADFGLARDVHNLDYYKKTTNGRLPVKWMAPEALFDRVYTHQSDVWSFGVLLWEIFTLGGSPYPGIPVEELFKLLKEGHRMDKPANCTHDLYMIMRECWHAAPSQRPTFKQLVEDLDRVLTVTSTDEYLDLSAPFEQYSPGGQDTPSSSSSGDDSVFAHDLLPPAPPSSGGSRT
UniProt P36888, whole entry: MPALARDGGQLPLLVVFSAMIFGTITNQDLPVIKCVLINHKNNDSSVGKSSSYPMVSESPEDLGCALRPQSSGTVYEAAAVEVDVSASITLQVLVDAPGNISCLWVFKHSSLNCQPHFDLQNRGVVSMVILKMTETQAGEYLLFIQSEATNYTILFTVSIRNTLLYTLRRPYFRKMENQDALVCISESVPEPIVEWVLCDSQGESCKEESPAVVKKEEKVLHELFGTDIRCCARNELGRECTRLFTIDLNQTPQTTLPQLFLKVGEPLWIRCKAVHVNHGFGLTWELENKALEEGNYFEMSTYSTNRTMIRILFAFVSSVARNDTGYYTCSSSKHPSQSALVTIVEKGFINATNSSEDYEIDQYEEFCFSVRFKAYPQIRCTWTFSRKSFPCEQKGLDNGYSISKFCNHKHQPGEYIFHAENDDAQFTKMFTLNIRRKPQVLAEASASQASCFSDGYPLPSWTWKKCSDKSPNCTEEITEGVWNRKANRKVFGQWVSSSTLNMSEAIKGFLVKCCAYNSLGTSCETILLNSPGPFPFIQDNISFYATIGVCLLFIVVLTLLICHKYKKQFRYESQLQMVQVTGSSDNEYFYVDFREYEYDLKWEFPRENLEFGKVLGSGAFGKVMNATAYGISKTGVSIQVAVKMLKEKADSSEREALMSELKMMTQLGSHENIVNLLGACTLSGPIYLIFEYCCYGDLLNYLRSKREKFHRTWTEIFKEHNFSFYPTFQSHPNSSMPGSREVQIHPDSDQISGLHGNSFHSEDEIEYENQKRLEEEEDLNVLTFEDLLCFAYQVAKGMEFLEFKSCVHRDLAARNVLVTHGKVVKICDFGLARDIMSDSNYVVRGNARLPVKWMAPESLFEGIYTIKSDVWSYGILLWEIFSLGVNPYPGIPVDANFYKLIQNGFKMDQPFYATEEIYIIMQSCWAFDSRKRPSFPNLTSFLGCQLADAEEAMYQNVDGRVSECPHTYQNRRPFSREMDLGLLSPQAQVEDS
UniProt P49840: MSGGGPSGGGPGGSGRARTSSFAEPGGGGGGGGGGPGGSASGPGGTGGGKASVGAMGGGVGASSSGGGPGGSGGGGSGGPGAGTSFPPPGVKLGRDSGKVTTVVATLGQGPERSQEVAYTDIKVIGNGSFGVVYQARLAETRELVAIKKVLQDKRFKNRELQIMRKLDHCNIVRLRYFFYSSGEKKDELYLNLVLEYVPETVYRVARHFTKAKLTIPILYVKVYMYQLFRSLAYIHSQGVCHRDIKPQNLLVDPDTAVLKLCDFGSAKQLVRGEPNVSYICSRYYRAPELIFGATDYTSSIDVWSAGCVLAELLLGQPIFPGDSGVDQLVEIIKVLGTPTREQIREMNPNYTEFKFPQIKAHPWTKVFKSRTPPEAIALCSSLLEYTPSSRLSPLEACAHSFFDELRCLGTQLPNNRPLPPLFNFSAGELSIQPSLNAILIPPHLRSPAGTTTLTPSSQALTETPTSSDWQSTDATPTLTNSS
UniProt P14616: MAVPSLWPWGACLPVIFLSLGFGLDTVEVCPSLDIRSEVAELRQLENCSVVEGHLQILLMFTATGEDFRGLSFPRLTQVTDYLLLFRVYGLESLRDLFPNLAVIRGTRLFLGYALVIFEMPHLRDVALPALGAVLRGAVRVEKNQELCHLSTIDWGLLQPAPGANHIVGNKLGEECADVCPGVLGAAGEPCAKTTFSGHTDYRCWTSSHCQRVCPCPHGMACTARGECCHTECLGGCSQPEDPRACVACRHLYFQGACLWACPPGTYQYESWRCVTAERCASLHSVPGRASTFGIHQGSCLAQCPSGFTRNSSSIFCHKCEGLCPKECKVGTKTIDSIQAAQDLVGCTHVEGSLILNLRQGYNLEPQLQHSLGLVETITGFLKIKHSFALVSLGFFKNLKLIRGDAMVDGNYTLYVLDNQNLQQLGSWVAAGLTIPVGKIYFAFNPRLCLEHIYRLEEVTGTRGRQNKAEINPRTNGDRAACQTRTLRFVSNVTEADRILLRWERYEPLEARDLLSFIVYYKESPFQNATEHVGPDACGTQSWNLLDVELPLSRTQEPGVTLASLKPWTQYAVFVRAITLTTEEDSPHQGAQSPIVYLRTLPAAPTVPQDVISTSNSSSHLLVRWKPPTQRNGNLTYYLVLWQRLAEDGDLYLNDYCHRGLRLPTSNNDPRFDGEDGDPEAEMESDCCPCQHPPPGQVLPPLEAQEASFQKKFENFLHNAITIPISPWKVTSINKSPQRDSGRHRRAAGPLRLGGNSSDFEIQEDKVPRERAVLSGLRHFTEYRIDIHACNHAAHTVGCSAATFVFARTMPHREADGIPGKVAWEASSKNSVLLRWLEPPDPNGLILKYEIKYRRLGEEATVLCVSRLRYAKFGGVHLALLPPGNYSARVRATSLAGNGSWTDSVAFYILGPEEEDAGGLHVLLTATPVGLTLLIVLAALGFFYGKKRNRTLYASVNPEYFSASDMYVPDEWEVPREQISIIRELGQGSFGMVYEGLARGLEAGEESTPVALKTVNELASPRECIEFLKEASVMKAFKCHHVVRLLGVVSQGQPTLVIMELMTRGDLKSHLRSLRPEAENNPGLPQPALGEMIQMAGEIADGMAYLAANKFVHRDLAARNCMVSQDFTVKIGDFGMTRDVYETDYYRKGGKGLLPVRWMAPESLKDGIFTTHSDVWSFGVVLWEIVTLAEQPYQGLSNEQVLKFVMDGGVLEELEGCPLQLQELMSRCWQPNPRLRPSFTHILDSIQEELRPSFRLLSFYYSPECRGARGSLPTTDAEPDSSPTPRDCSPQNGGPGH

Columns and labels:
Test in all cases: kinase-Nluc reporter destabilization hit call (1 = scored as downregulated) (binary); higher = compound decreases kinase abundance
Conditions in all cases: K562; 2-18 h
ERN1 = ERN1 (UniProt O75460)
FGFR1 = FGFR1 (UniProt P11362)
FGFR2 = FGFR2 (UniProt P21802)
FGFR3 = FGFR3 (UniProt P22607)
FGR = FGR (UniProt P09769)
FLT3 = FLT3 (UniProt P36888)
FYN = FYN (UniProt P06241)
GSK3A = GSK3A (UniProt P49840)
HER2 = HER2 (UniProt P04626)
INSRR = INSRR (UniProt P14616)

Measured: kinase-Nluc reporter destabilization hit call

CCCNC(=O)c1cn2ncnc(Nc3cc(C(=O)NC4CC4)ccc3C)c2c1C (10 µM)
inactive: ERN1 = 0 | FGFR1 = 0 | FGFR2 = 0 | FGFR3 = 0 | FGR 0 | FLT3 = 0 | FYN 0 | GSK3A 0 | HER2 = 0 | INSRR 0

N#Cc1ccc(-c2c(-c3ncn[nH]3)sc(N3CCOCC3)c2C#N)c(F)c1 (10 µM)
inactive: ERN1 = 0 | FGFR1 = 0 | FGFR2 = 0 | FGFR3 = 0 | FGR 0 | FLT3 = 0 | FYN 0 | GSK3A 0 | HER2 = 0 | INSRR 0

O=C1NC(=O)C(=Cc2ccc3c(c2)OCO3)S1 (10 µM)
inactive: ERN1 = 0 | FGFR1 = 0 | FGFR2 = 0 | FGFR3 = 0 | FGR 0 | FLT3 = 0 | FYN 0 | GSK3A 0 | HER2 = 0 | INSRR 0

CC[C@H](Nc1ncnc2[nH]cnc12)c1oc2ccccc2c(=O)c1-c1cccc(F)c1 [Tenalisib] (10 µM)
inactive: ERN1 = 0 | FGFR1 = 0 | FGFR2 = 0 | FGFR3 = 0 | FGR 0 | FLT3 = 0 | FYN 0 | GSK3A 0 | HER2 = 0 | INSRR 0

c1ccc(-c2nn3c(c2-c2ccnc4cc(OCCN5CCOCC5)ccc24)CCC3)nc1 (10 µM)
inactive: ERN1 = 0 | FGFR1 = 0 | FGFR2 = 0 | FGFR3 = 0 | FGR 0 | FLT3 = 0 | FYN 0 | GSK3A 0 | HER2 = 0 | INSRR 0

CCn1nc(C2CCN(C(=O)CCO)CC2)nc1-c1cnc(N)c(-c2nnc(C(C)(C)C)o2)n1 (10 µM)
inactive: ERN1 = 0 | FGFR1 = 0 | FGFR2 = 0 | FGFR3 = 0 | FGR 0 | FLT3 = 0 | FYN 0 | GSK3A 0 | HER2 = 0 | INSRR 0

O=C(O)c1ccccc1Nc1cccc(C(F)(F)F)c1 [Flufenamic acid] (10 µM)
inactive: ERN1 = 0 | FGFR1 = 0 | FGFR2 = 0 | FGFR3 = 0 | FGR 0 | FLT3 = 0 | FYN 0 | GSK3A 0 | HER2 = 0 | INSRR 0

NC(=O)c1ccc(-c2cnn3ccc(NCc4cccnc4)nc23)cc1 (2.5 µM)
inactive: ERN1 = 0 | FGFR1 = 0 | FGFR2 = 0 | FGFR3 = 0 | FGR 0 | FLT3 = 0 | FYN 0 | GSK3A 0 | HER2 = 0 | INSRR 0

O=C(O)c1ccc(N2N=C(Cc3ccccc3)C(=Cc3ccc(-c4ccccc4F)o3)C2=O)cc1 (10 µM)
inactive: ERN1 = 0 | FGFR1 = 0 | FGFR2 = 0 | FGFR3 = 0 | FGR 0 | FLT3 = 0 | FYN 0 | GSK3A 0 | HER2 = 0 | INSRR 0

CN1C(=O)NC(Cc2c[nH]c3c(Cl)cccc23)C1=O (racemic) [Necrostatin 2 (racemate)] (10 µM)
inactive: ERN1 = 0 | FGFR1 = 0 | FGFR2 = 0 | FGFR3 = 0 | FGR 0 | FLT3 = 0 | FYN 0 | GSK3A 0 | HER2 = 0 | INSRR 0

CCCC(=O)Nc1nc2c(ncn2[C@@H]2O[C@@H]3COP(=O)(O)O[C@H]3[C@H]2OC(=O)CCC)c(=O)[nH]1 [Dibutyryl-cGMP (sodium)] (10 µM)
inactive: ERN1 = 0 | FGFR1 = 0 | FGFR2 = 0 | FGFR3 = 0 | FGR 0 | FLT3 = 0 | FYN 0 | GSK3A 0 | HER2 = 0 | INSRR 0

Cc1cc2cc(Oc3ccnc(Nc4cccc(CS(=O)(=O)NCCN(C)C)c4)n3)ccc2[nH]1 [Sulfatinib] (10 µM)
inactive: ERN1 = 0 | FGFR1 = 0 | FGFR2 = 0 | FGFR3 = 0 | FGR 0 | FLT3 = 0 | FYN 0 | GSK3A 0 | HER2 = 0 | INSRR 0

CCOc1ccccc1C=C1C(=O)Nc2ccccc21 (10 µM)
inactive: ERN1 = 0 | FGFR1 = 0 | FGFR2 = 0 | FGFR3 = 0 | FGR 0 | FLT3 = 0 | FYN 0 | GSK3A 0 | HER2 = 0 | INSRR 0

C[C@@H]1CCc2ncc(F)cc2[C@H]2CCCN2c2ccn3ncc(c3n2)C(=O)N1 [Selitrectinib] (10 µM)
inactive: ERN1 = 0 | FGFR1 = 0 | FGFR2 = 0 | FGFR3 = 0 | FGR 0 | FLT3 = 0 | FYN 0 | GSK3A 0 | HER2 = 0 | INSRR 0

Cc1cccc(-c2[nH]ncc2-c2ccc3ncccc3n2)n1 (10 µM)
inactive: ERN1 = 0 | FGFR1 = 0 | FGFR2 = 0 | FGFR3 = 0 | FGR 0 | FLT3 = 0 | FYN 0 | GSK3A 0 | HER2 = 0 | INSRR 0

CN(C)c1nc2c(Br)c(Br)c(Br)c(Br)c2n1CC(=O)O (10 µM)
inactive: ERN1 = 0 | FGFR1 = 0 | FGFR2 = 0 | FGFR3 = 0 | FGR 0 | FLT3 = 0 | FYN 0 | GSK3A 0 | HER2 = 0 | INSRR 0

COc1nc(-c2cccc3c2OCCO3)ccc1Nc1ccc(CN(C)C)cc1 [RAS inhibitor Abd-7] (10 µM)
inactive: ERN1 = 0 | FGFR1 = 0 | FGFR2 = 0 | FGFR3 = 0 | FGR 0 | FLT3 = 0 | FYN 0 | GSK3A 0 | HER2 = 0 | INSRR 0

COc1ccccc1/C=C1\C(=O)Nc2ccccc21 (10 µM)
inactive: ERN1 = 0 | FGFR1 = 0 | FGFR2 = 0 | FGFR3 = 0 | FGR 0 | FLT3 = 0 | FYN 0 | GSK3A 0 | HER2 = 0 | INSRR 0

Structures from the list above with an aryl methoxy group, in the order listed:
COc1nc(-c2cccc3c2OCCO3)ccc1Nc1ccc(CN(C)C)cc1 [RAS inhibitor Abd-7] (10 µM)
inactive: ERN1 = 0 | FGFR1 = 0 | FGFR2 = 0 | FGFR3 = 0 | FGR 0 | FLT3 = 0 | FYN 0 | GSK3A 0 | HER2 = 0 | INSRR 0

COc1ccccc1/C=C1\C(=O)Nc2ccccc21 (10 µM)
inactive: ERN1 = 0 | FGFR1 = 0 | FGFR2 = 0 | FGFR3 = 0 | FGR 0 | FLT3 = 0 | FYN 0 | GSK3A 0 | HER2 = 0 | INSRR 0

The list continues:

COc1ccc(CNc2nc(N(CCO)CCO)nc3c2ncn3C(C)C)cc1 (2.5 µM)
inactive: ERN1 = 0 | FGFR1 = 0 | FGFR2 = 0 | FGFR3 = 0 | FGR 0 | FLT3 = 0 | FYN 0 | GSK3A 0 | HER2 = 0 | INSRR 0

Cn1cc(-c2ccc3nnc(C(F)(F)c4ccc5ncccc5c4)n3n2)cn1 (10 µM)
inactive: ERN1 = 0 | FGFR1 = 0 | FGFR2 = 0 | FGFR3 = 0 | FGR 0 | FLT3 = 0 | FYN 0 | GSK3A 0 | HER2 = 0 | INSRR 0

COc1cc(N2CCC(N(C)C)CC2)ccc1Nc1ncc(Cl)c(Nc2ccccc2P(C)(C)=O)n1 (2.5 µM)
inactive: ERN1 = 0 | FGFR1 = 0 | FGFR2 = 0 | FGFR3 = 0 | FGR 0 | FLT3 = 0 | FYN 0 | GSK3A 0 | HER2 = 0 | INSRR 0

CC(C)c1cnn2c(NCc3ccccc3-n3cccn3)nc(OC3CCCNC3)nc12 (stereo not given) (2.5 µM)
inactive: ERN1 = 0 | FGFR1 = 0 | FGFR2 = 0 | FGFR3 = 0 | FGR 0 | FLT3 = 0 | FYN 0 | GSK3A 0 | HER2 = 0 | INSRR 0

C[C@H]1Cc2ccccc2N1C(=O)Cc1nc(N2CCOCC2)cc(=O)[nH]1 (2.5 µM)
inactive: ERN1 = 0 | FGFR1 = 0 | FGFR2 = 0 | FGFR3 = 0 | FGR 0 | FLT3 = 0 | FYN 0 | GSK3A 0 | HER2 = 0 | INSRR 0

CSc1ccc(CN2CCCC(Nc3ccc4[nH]ncc4c3)C2)cc1 (stereo not given) [Rho-Kinase-IN-1] (10 µM)
inactive: ERN1 = 0 | FGFR1 = 0 | FGFR2 = 0 | FGFR3 = 0 | FGR 0 | FLT3 = 0 | FYN 0 | GSK3A 0 | HER2 = 0 | INSRR 0

CCN(C)C(=O)c1ccc2c(C(=Nc3ccc(CN4CCCCC4)cc3)c3ccccc3)c(O)[nH]c2c1 (2.5 µM)
inactive: ERN1 = 0 | FGFR1 = 0 | FGFR2 = 0 | FGFR3 = 0 | FGR 0 | FLT3 = 0 | FYN 0 | GSK3A 0 | HER2 = 0 | INSRR 0

C[C@@H]1COCCN1c1cc(C2([S@](C)(=N)=O)CC2)nc(-c2cc[nH]c3nccc2-3)n1 [Ceralasertib] (2.5 µM)
inactive: ERN1 = 0 | FGFR1 = 0 | FGFR2 = 0 | FGFR3 = 0 | FGR 0 | FLT3 = 0 | FYN 0 | GSK3A 0 | HER2 = 0 | INSRR 0

COc1ccc(-n2c(C)c([N+](=O)[O-])c3ccc(O)cc32)cc1 (10 µM)
inactive: ERN1 = 0 | FGFR1 = 0 | FGFR2 = 0 | FGFR3 = 0 | FGR 0 | FLT3 = 0 | FYN 0 | GSK3A 0 | HER2 = 0 | INSRR 0

CC(C)Oc1ccc(-c2cnc3c(-c4ccnc5ccccc45)cnn3c2)cc1 (10 µM)
inactive: ERN1 = 0 | FGFR1 = 0 | FGFR2 = 0 | FGFR3 = 0 | FGR 0 | FLT3 = 0 | FYN 0 | GSK3A 0 | HER2 = 0 | INSRR 0

O=C(Nc1ccc(Cl)cc1)C1CCCN(C(=O)c2cccc(-c3ccco3)c2)C1 (stereo not given) (2.5 µM)
inactive: ERN1 = 0 | FGFR1 = 0 | FGFR2 = 0 | FGFR3 = 0 | FGR 0 | FLT3 = 0 | FYN 0 | GSK3A 0 | HER2 = 0 | INSRR 0

CCC(C)(C)C(=O)N(O)Cc1ccccc1 (10 µM)
inactive: ERN1 = 0 | FGFR1 = 0 | FGFR2 = 0 | FGFR3 = 0 | FGR 0 | FLT3 = 0 | FYN 0 | GSK3A 0 | HER2 = 0 | INSRR 0
